Measured values taken from publication PMC3551926, “Dact2 Represses PITX2 Transcriptional Activation and Cell Proliferation through Wnt/beta-Catenin Signaling during Odontogenesis” (PLoS ONE, 2013).
These are yes or no findings as the source states them, for the method shown. A result given as binding can be weak or reduced; the word gives no strength. For some of these results: Binding seen in cells or lysates may run through a third protein.

Key:
[1] = molecular target: Pitx2 (endogenous, LS-8 oral epithelial cells) (mouse (endogenous in LS-8)) (UniProt P97474); test: co-IP; endogenous proteins of LS-8 whole cell lysate; precleared; immunoprecipitation with rabbit Pitx2 antibody and protein A/G-agarose at 4°C overnight; Western blot with anti-Dact2; normal rabbit IgG as control
[2] = molecular target: GST-PITX2A-HD (homeodomain); test: pull-down; GST-PITX2A fusion proteins (10–30 μg) immobilized on Glutathione-Sepharose beads; purified Dact2 added; 20 mM HEPES pH 7.5, 5% glycerol, 50 mM NaCl, 1 mM EDTA, 1 mM DTT, 1% milk, 400 μg/ml ethidium bromide; 30 min at 4°C; Dact2 detected by immunoblot; both purified
GST-PITX2A-NΔ38 = test: as above
[3] = molecular target: GST-PITX2A-FL (full length) (UniProt Q99697); test: as above

Binder | binding [1] | binding [2] | binding (GST-PITX2A-NΔ38) | binding [3]
Dact2 (endogenous, LS-8 oral epithelial cells) (protein, UniProt Q7TN08 1-757) MWAPSGQGPAGWDRRRVGARLRAALAGLQELQGLRATQQARVRGALGLHPAPGPRGQELRLEAALTALREQLSRLRRQDAGLKTHLDQLDQQISELQLDVSRSSCEALDSDSRPSSGFYELSDAGSCSLSTSCASVCSDRLSPSLGSWLPVFQPSKSRSGIGDWRPRSADETTVPAWSPQLTEDSRLLHGAEGTGRLTGMFRPRPVSTGDLERVLPADVGLQRAGTDAAHLLGQGIEIPAHALDPTYQRDLVARGGQEVYPYPSPLHAVALQSPLFALPKEAPCFDICSPPQEPPLVPVDENRTQPEPIRELGSAEAYIHRLLHLRGQELPLRDVGQEQGGDTAAFPPKPCGQRSESTCQLEKQACGADRGGLKLGRGAAKDSLKQHGPVSLVGAEPLSSPLKEETIPWNPCVHGDNTVGSSPCSQAQQPLNDCGQGPVLSPSRVLGTESPPLAPEPFAYTSCTTGETSPVKLRMGFSQNKAVKVRRRVSEKVPRLGKQLPPQPERQRVTERDPSRPHQGGLSRRPTLAREPPGRSCSESTLYPVPFLVPVVVAQRESYPTSPQAFFPMEAALLSSAARRKQRRWQSTMEISAKAGSVSQPGPSMGLPRSPAKRGSGPRAQSRPTLARQDACARCESDPSEHSADCTSLYHSTIAETSEDEEASDHTANRFGDESSSNDSEGCFRGSRRRLAIGSAEAGQGGWAWPRVPPQQPSRAPGNTRPPLPPVPKLCRIKASKALKKKIRRFQPAALKVMTMV | binds |  |  | 
Dact2, purified bacterially expressed protein (natural protein, mouse, UniProt Q7TN08 1-757, looked up) MWAPSGQGPAGWDRRRVGARLRAALAGLQELQGLRATQQARVRGALGLHPAPGPRGQELRLEAALTALREQLSRLRRQDAGLKTHLDQLDQQISELQLDVSRSSCEALDSDSRPSSGFYELSDAGSCSLSTSCASVCSDRLSPSLGSWLPVFQPSKSRSGIGDWRPRSADETTVPAWSPQLTEDSRLLHGAEGTGRLTGMFRPRPVSTGDLERVLPADVGLQRAGTDAAHLLGQGIEIPAHALDPTYQRDLVARGGQEVYPYPSPLHAVALQSPLFALPKEAPCFDICSPPQEPPLVPVDENRTQPEPIRELGSAEAYIHRLLHLRGQELPLRDVGQEQGGDTAAFPPKPCGQRSESTCQLEKQACGADRGGLKLGRGAAKDSLKQHGPVSLVGAEPLSSPLKEETIPWNPCVHGDNTVGSSPCSQAQQPLNDCGQGPVLSPSRVLGTESPPLAPEPFAYTSCTTGETSPVKLRMGFSQNKAVKVRRRVSEKVPRLGKQLPPQPERQRVTERDPSRPHQGGLSRRPTLAREPPGRSCSESTLYPVPFLVPVVVAQRESYPTSPQAFFPMEAALLSSAARRKQRRWQSTMEISAKAGSVSQPGPSMGLPRSPAKRGSGPRAQSRPTLARQDACARCESDPSEHSADCTSLYHSTIAETSEDEEASDHTANRFGDESSSNDSEGCFRGSRRRLAIGSAEAGQGGWAWPRVPPQQPSRAPGNTRPPLPPVPKLCRIKASKALKKKIRRFQPAALKVMTMV |  | binds | binds | binds
